Laboratory results published in patent US20220265873 (published 2022).

Assay: peptide synthesis
Settings: whole synthesis, 280 nm

N^α-{4-azido-3,3-dimethyl-1-[(N,N-dimethyl)amino-sulfonyl]-2-butyloxycarbonyl}-[Gln^28]exenatide
final HPLC purity: 90.0%
